± gives the standard deviation. Only a part is listed here, and it is no random draw. Many entries were measured with a wide error.

For the assay, the system named is MILI (PIWIL2) piRISC loaded with Kctd7 piRNA (26 nt). The assay is described as follows: pre-steady-state target cleavage rate (min^-1); MIWI and MILI are mouse PIWI proteins and EfPiwi is from a freshwater sponge; tags in brackets are library labels; higher = faster piRNA-guided slicing of the target. The following applies: guide: Kctd7 piRNA 5'p-UGUUAAUCUCUCAGAGAAGGUGACAG; auxiliary factor: 500 nM mouse GTSF1. The method in brief: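 With or without 500 nM GTSF1 partner protein, 1 nM active affinity-purified piRISC carrying one synthetic guide was mixed with 0.1 nM transcribed, DNA-blocked target RNA library in HEPES–potassium acetate buffer at 33 °C for 0–8 or 0–960 min. Uncleaved targets were sequenced and normalised to depth and to weakly complementary targets, three trials were pooled, and k3 was capped at 0.0001 min^-1. The pre-steady-state cleavage rate came from a burst-and-steady-state fit.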
With UAGUGACUCUGGUUCUCUGAGAGAUUAAGA, the “pre-steady-state target cleavage rate” value stood at 0.00016 ± 0.025.

With UAGUGACAGACCUUCUCUGUGAGAAUAACA, the “pre-steady-state target cleavage rate” value worked out at 0.00171 ± 0.0077.

For the sequence UAGUCAGUCACCUUCUCUGAGAGUUUAACA, the “pre-steady-state target cleavage rate” value came out at 0.261 ± 0.041.

For UAGUCUGACACCUUCUCUGAGUGAUUAACA, the “pre-steady-state target cleavage rate” value was found to be 0.00145 ± 0.0041.

Turning to UAGUGACAGUCCUUCAGUGAGAGAUUAUGA, the “pre-steady-state target cleavage rate” value worked out at 0.00151 ± 0.0057.

As for UAGUGACUCACCUUCUCUCUGAGAUUAAGA, the “pre-steady-state target cleavage rate” value is 0.00113 ± 0.008.

Consider UAGUGUGUCACCUUCUGUCAGAGAUUAACA, for which the “pre-steady-state target cleavage rate” value was determined as 0.039 ± 0.0051.

For the sequence UAGUGACACACCUUCUCUGAGUCAUUUUGA, the “pre-steady-state target cleavage rate” value came out at 0.000496 ± 0.019.

On to UAGUGACAGUGGAUCUCUGACUCAUUAACA, for which the “pre-steady-state target cleavage rate” value came to 0.000322 ± 0.0087.

Regarding UAGUGAGUCACCUUCUCUGAGAGAUUACA, the “pre-steady-state target cleavage rate” value worked out at 0.153 ± 0.033.

UAGUGACAGUGGAACUCUGAGAGUUUAUCA: the “pre-steady-state target cleavage rate” value turned out to be 0.000115 ± 0.048.

Turning to UAGUGACAGUGCUUCUCUCAGAGAAUAACA, the “pre-steady-state target cleavage rate” value turned out to be 0.00118 ± 0.0065.

Consider UAGUGACUCACCUUCUCUGUCUGAUUAACA, for which the “pre-steady-state target cleavage rate” value stood at 0.00106 ± 0.0077.

On to UAGUGACUCACCUUCUCUGAGAGUUAAACA, for which the “pre-steady-state target cleavage rate” value turned out to be 0.0666 ± 0.014.

For the sequence UAGUGACUCACCUUCUCUGAGCAGAUUAACA, the “pre-steady-state target cleavage rate” value came to 0.00131 ± 0.0081.

As for UAGUGACAGUGGUUCUCUGAGAGAUUAGCA, the “pre-steady-state target cleavage rate” value worked out at 0.000466 ± 0.0077.

Regarding UAGUGACAGUCGUUCUCUGAGAGAUAAACA, the “pre-steady-state target cleavage rate” value turned out to be 0.00167 ± 0.0052.

Take UAGUGACAGACCUUCUCUGGAGAGAUUAACA: the “pre-steady-state target cleavage rate” value stood at 0.000649 ± 0.017.

On to UAGUGUGUCACGAACUCUGAGAGAUUAUGA, for which the “pre-steady-state target cleavage rate” value was determined as 0.00125 ± 0.0077.

For the sequence UAGUGAGUGACCUUCUCUGAGACAUUAACA, the “pre-steady-state target cleavage rate” value amounted to 0.0267 ± 0.0076.

Regarding UAGUGACACACCUUCUCUGAGUCAUUAUGA, the “pre-steady-state target cleavage rate” value came to 0.00049 ± 0.013.

For UAGUGACAGUCCUUCACUGAGUGAUUAACA, the “pre-steady-state target cleavage rate” value was determined as 0.00216 ± 0.0049.

Take UAGUGACAGUGGAACUCUGAGAAUUAACA: the “pre-steady-state target cleavage rate” value turned out to be 0.000158 ± 0.039.

With UAGUGACAGUCCUUCUCUGAGUAGAUUAACA, the “pre-steady-state target cleavage rate” value is 0.00139 ± 0.0046.

Take UAGUGACAGUCCUUCUCUGAAGAUUAACA: the “pre-steady-state target cleavage rate” value came out at 0.000114 ± 0.028.

UAGUGACAGUGCUUCUCUGAGAGUUAAACA: the “pre-steady-state target cleavage rate” value was found to be 0.000186 ± 0.0084.

In the case of “UAGUGACAGUGGAAGAGACUCAGAUUAACU [g2:g9:cont:t1U]”, the “pre-steady-state target cleavage rate” value amounted to 0.000457 ± 0.015.

On to UAGUGAGUCACCUUCUCUGUGAGAUAAACA, for which the “pre-steady-state target cleavage rate” value turned out to be 0.0242 ± 0.0096.

With UAGUGACAGUCGUUCUCUGAGAGAAUAACA, the “pre-steady-state target cleavage rate” value was 0.00086 ± 0.0095.

In the case of UAGUGACAGUGGAAGUCUGACUCAUUAACA, the “pre-steady-state target cleavage rate” value is 0.000208 ± 0.017.

As to UAGUGACAGACCUUCUACUGAGAGAUUAACA, the “pre-steady-state target cleavage rate” value is 0.000462 ± 0.034.

With UAGUGACAGACCUUCUCAUGAGAGAUUAACA, the “pre-steady-state target cleavage rate” value is 0.00109 ± 0.0098.

With UAGUGACACACCUUCUCUGAGAGUUAAACA, the “pre-steady-state target cleavage rate” value came out at 0.00447 ± 0.0057.

Consider “UAGUGACAGUCCUUCUCUGAGAGUAAUUGA [g8:g20:cont:t1A]”, for which the “pre-steady-state target cleavage rate” value was less than 0.0001.

Consider UAGUGACAGUGGAAGUCUGAGGGAUUAACA, for which the “pre-steady-state target cleavage rate” value worked out at 0.000573 ± 0.0045.

For UAGUGACACACCUUCUCUGAGAAUUAACA, the “pre-steady-state target cleavage rate” value is 0.00378 ± 0.0048.

With UAGUCUGUCACCUUCUCUGAGAGUAUAACA, the “pre-steady-state target cleavage rate” value was found to be 0.122 ± 0.022.

Take UAGUGACAGUGCUUCUCUCAGAGAUUAUCA: the “pre-steady-state target cleavage rate” value was found to be 0.00269 ± 0.0036.

Regarding UAGUGACAGUGGAUCUCUGAGAGAUUAACCA, the “pre-steady-state target cleavage rate” value was 0.00143 ± 0.0026.

Take UAGUGACUCACCUUCUCUCUCAGAUUAUGA: the “pre-steady-state target cleavage rate” value was 0.000154 ± 0.056.

For UAGUGACAGUCCUUCUCUGUCUGAUUAACA, the “pre-steady-state target cleavage rate” value came out at 0.000839 ± 0.0063.

Regarding UAGUCUGUCACCUUCUCACAGAGAUUAAGA, the “pre-steady-state target cleavage rate” value is 0.00338 ± 0.0044.

UAGUGACAGUGGAAGAGACAGAGUAAAACA: the “pre-steady-state target cleavage rate” value is 0.000177 ± 0.035.

UAGUGACAGACCAACUCUGAGAGAUUAUGA: the “pre-steady-state target cleavage rate” value was 0.00108 ± 0.0061.

For UAGUGAGUCACCUUCUCUGAGAGUAUUAACA, the “pre-steady-state target cleavage rate” value was 0.158 ± 0.019.

Regarding UAGUGACUCACCAAGUCUGAGAGAUUAUGA, the “pre-steady-state target cleavage rate” value was 0.00166 ± 0.0052.

UAGUGAGUCACCUUCUCUGAGAGUUAAACA: the “pre-steady-state target cleavage rate” value was found to be 0.297 ± 0.086.

UAGUGACUCACCAUCUCUGAGAGAUAUUGA: the “pre-steady-state target cleavage rate” value stood at 0.00115 ± 0.0055.

For UAGUGACAGUCCUUGUCUGAGAGUUUAACA, the “pre-steady-state target cleavage rate” value was 0.00225 ± 0.0063.

Consider UAGUGACAGUGCUUCUCUGAGAAAUUAACA, for which the “pre-steady-state target cleavage rate” value is 0.00916 ± 0.0047.

For UAGUGACAGUGGAACUCUGAGAGGUUAACA, the “pre-steady-state target cleavage rate” value was 0.00034 ± 0.018.

In the case of UAGUGACACACCUUCUCUCUGAGAUUAUGA, the “pre-steady-state target cleavage rate” value was found to be 0.00107 ± 0.011.

Turning to UAGUGACAGUGCAUCUCUGAGAGAUUUACA, the “pre-steady-state target cleavage rate” value amounted to 0.00149 ± 0.0043.

Regarding UAGUGACAGACCUUCUCUGAGAGAAUAUGA, the “pre-steady-state target cleavage rate” value was determined as 0.000632 ± 0.016.

Take UAGUGACAGUGCUUCUCUGUAGAGAUUAACA: the “pre-steady-state target cleavage rate” value worked out at 0.000264 ± 0.014.

In the case of UAGUGUGUCAGGAUCUCUGAGAGAUAUUGA, the “pre-steady-state target cleavage rate” value turned out to be 0.00026 ± 0.013.

Regarding UAGUCUGUCACCUUGACUGAGAGAUAUUGA, the “pre-steady-state target cleavage rate” value was found to be 0.000369 ± 0.02.

Consider UAGUGACACACGAUCUCUGAGAGAUUAACA, for which the “pre-steady-state target cleavage rate” value came to 0.0352 ± 0.0045.

Regarding UAGUGACAGUGGAUCUCUGGGAGAUUAACA, the “pre-steady-state target cleavage rate” value worked out at 0.0017 ± 0.0023.

With UAGUGAGUCUGGUUCUCUGAGAGAUUAAGA, the “pre-steady-state target cleavage rate” value turned out to be 0.00209 ± 0.0047.

UAGUGACAGUGGAUGCUCUGAGAGAUUAACA: the “pre-steady-state target cleavage rate” value was 0.00231 ± 0.0032.

Regarding UAGUGACAGUGGAACCCUGAGAGAUUAACA, the “pre-steady-state target cleavage rate” value stood at 0.000164 ± 0.024.

Turning to UAGUCUGUCACCUUCUCCGAGAGAUUAACA, the “pre-steady-state target cleavage rate” value was determined as 0.21 ± 0.038.

Regarding UAGUCUGUCACCUUCUCUGGAGAGAUUAACA, the “pre-steady-state target cleavage rate” value worked out at 0.00236 ± 0.0048.

Turning to UAGUCUUCACCUUCUCUGAGAGAUUAACA, the “pre-steady-state target cleavage rate” value is 0.213 ± 0.019.

For the sequence UAGUGACAGUGCUUCUCUGGAGAGAUUAACA, the “pre-steady-state target cleavage rate” value turned out to be 0.000127 ± 0.022.

As to UAGUGACAGUGGUUCUGUGAGAGAUUAUCA, the “pre-steady-state target cleavage rate” value turned out to be 0.00128 ± 0.0063.

Regarding UAGUGACAGUGGAAGACUGAGAGAGUUAACA, the “pre-steady-state target cleavage rate” value amounted to 0.000235 ± 0.014.

Consider UAGUCUGUGACCUUCUCUGAGUGAUUAACA, for which the “pre-steady-state target cleavage rate” value turned out to be 0.002 ± 0.0047.

With UAGUGACUCACCUUCUCUGUCUGAUAUUGA, the “pre-steady-state target cleavage rate” value was found to be 0.00023 ± 0.038.

As for UAGUGACAGUGGAAGACUCAGUGAUUAACA, the “pre-steady-state target cleavage rate” value was determined as 0.000263 ± 0.02.

For UAGUGUGUCACCUUGACUGAGAGAUUAUGA, the “pre-steady-state target cleavage rate” value came to 0.000806 ± 0.013.

Values taken from the supplement of paper PMC10338343.
